Measurements reported in PubChem BioAssay AID1439 (NMMLSC, 2008).
About 770 (0.35%) of roughly 220,000 compounds were called active. The inconclusive results got no clear call from the source; some entries with a clear call stand among them for comparison. Rule as the data show it: active = binding response below about 49% or above about 150%; inconclusive = no clear call, values can overlap the other calls; inactive = in between.

Chains of the proteins cited; added tags and fusions are not shown.
UniProt P09471, whole entry, looked up: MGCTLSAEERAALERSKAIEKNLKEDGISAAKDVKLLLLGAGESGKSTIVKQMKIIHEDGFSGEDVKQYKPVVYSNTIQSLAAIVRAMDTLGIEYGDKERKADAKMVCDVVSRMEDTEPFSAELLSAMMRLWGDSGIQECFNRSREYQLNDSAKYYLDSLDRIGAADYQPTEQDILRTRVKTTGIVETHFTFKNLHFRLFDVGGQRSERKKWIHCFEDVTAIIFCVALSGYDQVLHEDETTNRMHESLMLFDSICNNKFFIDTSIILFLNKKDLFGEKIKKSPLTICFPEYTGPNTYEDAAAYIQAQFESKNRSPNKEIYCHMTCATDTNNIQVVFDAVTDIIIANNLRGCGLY

molecular target: Guanine nucleotide-binding protein G(o) subunit alpha (Homo sapiens) (UniProt P09471); assay: RGS7-Galphao binding modulators, primary screen, biochemical, multiplexed bead flow cytometry (AID 1439); settings: at 10 µM, actives lie on both sides;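 also: fluorescent Galphao held in activated GDP-AlF4 state binding bead-coupled RGS7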

| Compound | binding response (% of control) |
| --- | --- |
| COc1cccc(OC)c1OCCCCN1CCCC1 | inactive: 107% |
| Cc1cc(C)cc(Oc2nc(C(F)(F)F)nc3ccccc23)c1 | inactive: 100% |
| Cc1nc([N+](=O)[O-])cn1CC(=O)c1ccccc1 | inconclusive: 124% |
| COCCOc1cc2ncnc(N3CCC(C(=O)O)CC3)c2cc1OCCOC | inconclusive: 231% |
| O=C(CSc1nnc(-c2ccncc2)n1Cc1ccco1)Nc1ccccc1F | inconclusive: 159% |
| COc1ccccc1N1CCN(C(=O)COc2ccc(S(=O)(=O)NC(C)(C)C)cc2)CC1 | inactive: 101% |
| O=C(OCC1CC(c2ccccc2)=NO1)c1ccco1 (stereo not given) | inconclusive: 199% |
| COc1cccc(C(=O)Cn2c(=O)n(CCC(=O)NCC3CCCO3)c(=O)c3cc(OC)c(OC)cc32)c1 (stereo not given) | inconclusive: 83.8% |
| CC(C)CNc1cc(Cl)c(S(=O)(=O)NCC(C)C)cc1C(=O)O | inactive: 135% |
| CCN(CC)CCNCc1cc(Cl)c(OCC(=O)Nc2ccccc2)c(OC)c1 | inconclusive: 80.9% |
| CCOC(CNc1ncnc2c1cnn2C)OCC | inconclusive: 78.8% |
| CCCCCCCC(=O)N1c2ccccc2NC(=O)C1CC(=O)Nc1ccc(C(=O)O)cc1 (stereo not given) | inconclusive: 101% |
| CCCCN(C(=O)c1ccc(S(=O)(=O)N(C)C)cc1)c1ccccc1 | inconclusive: 107% |
| Cc1cc(C)n(-c2nnc(NCc3ccc(Cl)cc3)nn2)n1 | inconclusive: 96.3% |
| CCOc1cc(/C=C(\C#N)C(=O)NCc2cccnc2)ccc1O | inactive: 104% |
| c1ccc2c(c1)[nH]c1c3ccccc3sc21 | inconclusive: 107% |
| NS(=O)(=O)c1ccc(N/N=C/c2ccc(O)cc2O)c([N+](=O)[O-])c1 | inconclusive: 87.6% |
| Cc1cccc(N2CCN(C(=O)/C=C/c3cccs3)CC2)c1C | inactive: 101% |
| O=S(=O)([N-]c1nc2ccccc2nc1-n1cc[n+](Cc2ccccc2)c1)c1ccc(Cl)cc1 | inconclusive: 135% |
| NC(=O)Oc1cccc(OC(N)=O)c1 | inconclusive: 45.1% |
| Cc1nc(N2CCCCC2)c(C#N)c(C)c1[N+](=O)[O-] | inactive: 148% |
| O=C(CCCN1C(=O)/C(=C/c2ccco2)SC1=S)Nc1ccccc1C(=O)O | inconclusive: 103% |
| N#C/C(=C\c1ccc[nH]1)C(=O)N1CCCCC1 | inconclusive: 115% |

| Compound | binding response (% of control) |
| --- | --- |
| Cc1ccc(-n2c(CSc3nc(C)cc(C)n3)nnc2SCC(=O)Nc2nccs2)cc1 | inconclusive: 92.3% |
| CCN(CC)S(=O)(=O)c1ccc(N2CCCC2)c(NC(=O)c2ccccc2OC)c1 | inconclusive: 117% |
| CCCCOc1ccc(C(=O)N/C(=C/C=C/c2ccccc2)C(=O)NCCO)cc1 | inactive: 99.5% |
| CCOC(=O)c1c(C)[nH]c(C(=O)COC(=O)c2ccc(O)cc2O)c1C | inconclusive: 124% |
| CCOc1ccc(Nc2nc3ccccc3n3cnnc23)cc1 | inconclusive: 58.7% |
| COC(=O)CCC(=O)OC1(C)C(=O)C2=CN(CC(C)C)C(c3ccc(OC)cc3)=CC2=C(Br)C1=O (stereo not given) | inconclusive: 68.4% |
| N/C(CS(=O)(=O)c1ccc(F)cc1)=N\O | inconclusive: 175% |
| CCOC(=O)CSc1nc2cc3c(cc2cc1C)OCO3 | inactive: 140% |
| Cc1nc([N+](=O)[O-])cn1CC(O)c1ccc(-c2ccccc2)cc1 (stereo not given) | inconclusive: 89.2% |
| CC[C@@H]1CC=C[C@H]2[C@H]1C(=O)N(Cc1ccccc1)[C@H]2c1ccoc1 | inconclusive: 89.8% |
| CC(C)c1cc(-c2cc(-c3ccc(Cl)cc3)on2)nc(NCC2CC2)n1 | inconclusive: 98.1% |
| Cc1cn(CCC(=O)Nc2ccccc2N2CCOCC2)c2ccccc12 | inconclusive: 65% |
| N/C(=N\OC(=O)c1cccc(Cn2cc(C(F)(F)F)ccc2=O)c1)c1ccccc1 | inconclusive: 115% |
| Cc1cc(/C=C2/NC(=O)NC2=O)c(C)n1-c1ccc(N2CCOCC2)cc1 | inconclusive: 96.1% |
| O=C(O)c1cc(-c2cccs2)nn1-c1ccccc1 | inconclusive: 100% |
| COC(=O)Cn1ncc2c3ccccc3n(C)c2c1=O | inactive: 101% |
| O=C(O)CSc1nnc(-c2ccccc2)c(-c2ccccc2)n1 | inconclusive: 131% |
| COC(=O)CNC(=O)C(Cc1c[nH]c2ccccc12)NC(=O)Oc1ccccc1 (stereo not given) | inconclusive: 94.5% |
| COc1ccc(Oc2nc3c(C)cccn3c(=O)c2/C=C(\C#N)C(N)=O)cc1 | inconclusive: 104% |
| O=S(=O)(Nc1ccc2ccccc2n1)c1ccc2c(c1)CCO2 | inconclusive: 130% |
| Cc1ccnc(NC(=O)COc2ccc(Cl)cc2)n1 | inconclusive: 22.4% |
| CCCCn1c(SCC(=O)N2CCC(C)CC2)nc2cc(S(N)(=O)=O)ccc21 | inactive: 102% |
| CCSc1nnc(NC(=O)CSc2nc(CC)nc3c2c(=O)n(C)c(=O)n3C)s1 | inactive: 105% |

| Compound | binding response (% of control) |
| --- | --- |
| Cc1cc(C)cc(C(=O)NC(CC(N)=O)c2ccc(NC3CCCCCC3)c([N+](=O)[O-])c2)c1 (stereo not given) | inconclusive: 83.5% |
| COc1cc(NC2c3ccccc3C(=O)N2Cc2ccccc2Cl)cc(OC)c1 (stereo not given) | inconclusive: 84.1% |
| COc1ccc(S(=O)CC(=O)Nc2ccc(Cl)cc2Cl)cc1 (stereo not given) | inactive: 101% |
| Cc1ccc(O)c(CCc2ccc(O)cc2)n1 | inactive: 101% |
| O=c1c2ccccc2c2ccccc2c(=O)n1CC1CCCO1 (stereo not given) | inactive: 121% |
| S=c1nc(-c2csc3c2CCCC3)[nH][nH]1 | inactive: 86% |
| Cc1ccccc1C(=O)NNC(=O)CSc1nc(-c2ccccc2)cc(=O)[nH]1 | inconclusive: 85.4% |
| Cc1cccc2c1-c1sc(C(=O)NCCCN3CCc4ccccc4C3)cc1CO2 | inconclusive: 90.7% |
| CC(C)(C)N1CC(OC(N)=O)C1 | inconclusive: 133% |
| Cc1cc(C)cc(OCC(=O)NNC(=O)CCC(=O)NCc2ccccc2)c1 | inactive: 99.4% |
| O=C1CCCc2oc3c(cc(NS(=O)(=O)c4ccc5c6c(cccc46)C(=O)N5)c4ccccc43)c21 | inconclusive: 105% |
| Cc1ccc(C(=O)COC(=O)c2cc(Cl)nc3ccccc23)cc1C | inactive: 118% |
| COC(=O)c1cc(NC(=O)c2ccccc2)c(=O)oc1/C=C/Nc1ccc(Oc2ccccc2)cc1 | active: 211% [activator] |
| O=C(O)C1CCN(c2ccc([N+](=O)[O-])cc2[N+](=O)[O-])CC1 | inconclusive: 75% |
| CCOc1cc2oc(=O)c3c(c2cc1Cl)CCC3 | inactive: 148% |
| O=C1CCCN1CCCNC(=S)Nc1ccccc1 | inconclusive: 136% |
| CCN(CC(=O)NCc1cccs1)C(=O)c1ccccc1F | inconclusive: 91.6% |
| CCCc1[nH]nc2c1C(c1ccncc1)C(C#N)=C(N)O2 (stereo not given) | inactive: 96.3% |
| CC(C)(C)c1ccc(COn2ccnc2)cc1 | inactive: 100% |
| O=c1cc(CN2CCCc3ccccc32)nc2sccn12 | inconclusive: 109% |
| COc1ccc(Cl)cc1C(=O)O/N=C(\N)c1ccncc1 | inconclusive: 75.5% |
| O=[N+]([O-])c1ccc2c(c1)c1ccccc1n2CCO | inconclusive: 95.3% |
| CCN(CC)CCCN(Cc1cc2cc(OC)ccc2[nH]c1=O)C(=O)Nc1ccccc1 | inconclusive: 92.3% |

2 entries from above, with each value named.
COC(=O)Cn1ncc2c3ccccc3n(C)c2c1=O
  binding response (% of control): inactive: 101%
O=C(O)CSc1nnc(-c2ccccc2)c(-c2ccccc2)n1
  binding response (% of control): inconclusive: 131%

Among those listed so far, five contain two or more sulfur atoms:

| Compound | binding response (% of control) |
| --- | --- |
| O=C(CCCN1C(=O)/C(=C/c2ccco2)SC1=S)Nc1ccccc1C(=O)O | inconclusive: 103% |
| Cc1ccc(-n2c(CSc3nc(C)cc(C)n3)nnc2SCC(=O)Nc2nccs2)cc1 | inconclusive: 92.3% |
| CCCCn1c(SCC(=O)N2CCC(C)CC2)nc2cc(S(N)(=O)=O)ccc21 | inactive: 102% |
| CCSc1nnc(NC(=O)CSc2nc(CC)nc3c2c(=O)n(C)c(=O)n3C)s1 | inactive: 105% |
| S=c1nc(-c2csc3c2CCCC3)[nH][nH]1 | inactive: 86% |

Continued:

| Compound | binding response (% of control) |
| --- | --- |
| O=C(c1ccc([N+](=O)[O-])c(CS(=O)(=O)c2ccc(Cl)cc2)c1)N1CCCC1 | inactive: 92.7% |
| FC(F)Sc1nc2ccccc2[nH]1 | inconclusive: 95% |
| COc1ccc(Cl)cc1N(CC(=O)NCC(C)C)S(=O)(=O)c1ccc(C)c([N+](=O)[O-])c1 | inactive: 105% |
| CN(C)C(=O)c1cn(-c2ccccc2)nc1-c1cccc([N+](=O)[O-])c1 | inconclusive: 104% |
| CCS(=O)(=O)c1cc([N+](=O)[O-])c(Sc2ccccc2N)s1 | inconclusive: 222% |
| [O-]/[N+](=C\C=C\c1ccccc1)c1ccccc1 | inconclusive: 91.1% |
| Cc1ccc2c(c1)C1(C)C(C(C)(C)N2C=O)C1(Cl)Cl (stereo not given) | inconclusive: 124% |
| COc1ccc(/C=C/C(=O)Nc2ccc(NC(C)=O)cc2)cc1S(=O)(=O)N1CCOCC1 | inconclusive: 106% |
| Cc1ccc(S(=O)(=O)N2CCCCC2)cc1C(=O)N1CCN(c2ccccn2)CC1 | inconclusive: 104% |
| CCC(=O)N1CCN(c2ccc(NC(=O)c3ccc(C#N)cc3F)cc2Cl)CC1 | inconclusive: 116% |
| O=C(N/N=C/c1ccc2c(c1)OCO2)c1ccc2ccccc2n1 | inconclusive: 85.9% |
| O=c1cc(-c2ccccc2Cl)oc2c(NS(=O)(=O)c3cccs3)ccc(O)c12 | inconclusive: 57.8% |
| CC(=O)c1cccc(NC(=O)C(C)OC(=O)CNC(=O)c2ccc(C)s2)c1 (stereo not given) | inconclusive: 84.6% |
| O=C(CCN(NC(=O)c1ccccc1)C1=NS(=O)(=O)c2ccccc21)NC1CCCCC1 | inactive: 103% |
| O=C(Nc1ccc(-c2csnn2)cc1)C1CC1 | inconclusive: 369% |
| COc1c(Cl)cc(Cl)cc1C(=O)Nc1ccc(C(=O)O)cc1 | inactive: 99.7% |
| CC1CN(c2nc3ccccn3c(=O)c2/C=C(\C#N)C(=O)N2CCOCC2)CC(C)O1 (stereo not given) | inconclusive: 88.4% |
| CCOC(=O)Cc1cnc(NC(=O)CSc2nc(N)cc(=O)[nH]2)s1 | inconclusive: 99.8% |
| COC(=O)C1=C(N)c2ccccc2C1(C#N)c1ccccc1 (stereo not given) | inactive: 90.8% |
| CCn1c2ccccc2n2c(=O)c(=O)n(CC(=O)Nc3ccc(C(C)C)cc3)nc12 | inactive: 101% |
| O=S(=O)([N-]c1nc2ccccc2nc1-[n+]1ccc(Cc2ccccc2)cc1)c1ccc(Br)s1 | inconclusive: 205% |
